Results reported in the supplement of paper PMC10849652.
Some of the results follow. Residues, ends and D or L forms follow the SMILES beside them. *: point of attachment. Cbz = O=C(OCc1ccccc1)*

By UniProt entry, the sequences of proteins in these tests, tags left out. Where a name states a change or a piece, a line headed by the entry shows the natural chain unless it says otherwise.
UniProt Q99442: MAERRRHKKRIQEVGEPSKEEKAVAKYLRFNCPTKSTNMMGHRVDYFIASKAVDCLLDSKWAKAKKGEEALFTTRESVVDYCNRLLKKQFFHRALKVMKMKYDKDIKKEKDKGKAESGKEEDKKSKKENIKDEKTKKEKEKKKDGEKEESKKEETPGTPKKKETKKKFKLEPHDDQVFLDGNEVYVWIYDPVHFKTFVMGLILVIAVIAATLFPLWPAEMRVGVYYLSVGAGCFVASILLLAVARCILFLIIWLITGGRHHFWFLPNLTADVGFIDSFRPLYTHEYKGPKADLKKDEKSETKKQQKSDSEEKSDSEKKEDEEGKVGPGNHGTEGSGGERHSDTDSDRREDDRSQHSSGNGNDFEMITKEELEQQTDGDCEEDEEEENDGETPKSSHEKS
UniProt Q9UQ13: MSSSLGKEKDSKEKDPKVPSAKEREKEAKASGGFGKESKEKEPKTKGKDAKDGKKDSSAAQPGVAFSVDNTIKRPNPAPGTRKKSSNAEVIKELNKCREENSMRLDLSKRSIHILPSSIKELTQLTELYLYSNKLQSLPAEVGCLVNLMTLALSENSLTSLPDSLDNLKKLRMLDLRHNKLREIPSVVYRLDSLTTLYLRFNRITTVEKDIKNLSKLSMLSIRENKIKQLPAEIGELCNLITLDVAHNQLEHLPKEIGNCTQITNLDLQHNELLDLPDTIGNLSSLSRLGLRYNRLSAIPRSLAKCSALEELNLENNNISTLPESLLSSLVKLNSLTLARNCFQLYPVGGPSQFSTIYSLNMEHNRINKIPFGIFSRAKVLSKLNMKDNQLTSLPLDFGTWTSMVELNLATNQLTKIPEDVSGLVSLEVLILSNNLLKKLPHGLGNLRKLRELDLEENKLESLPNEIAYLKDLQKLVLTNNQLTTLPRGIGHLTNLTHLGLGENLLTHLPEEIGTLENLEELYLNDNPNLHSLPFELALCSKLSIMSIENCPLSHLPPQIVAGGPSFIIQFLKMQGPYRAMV
UniProt Q12874: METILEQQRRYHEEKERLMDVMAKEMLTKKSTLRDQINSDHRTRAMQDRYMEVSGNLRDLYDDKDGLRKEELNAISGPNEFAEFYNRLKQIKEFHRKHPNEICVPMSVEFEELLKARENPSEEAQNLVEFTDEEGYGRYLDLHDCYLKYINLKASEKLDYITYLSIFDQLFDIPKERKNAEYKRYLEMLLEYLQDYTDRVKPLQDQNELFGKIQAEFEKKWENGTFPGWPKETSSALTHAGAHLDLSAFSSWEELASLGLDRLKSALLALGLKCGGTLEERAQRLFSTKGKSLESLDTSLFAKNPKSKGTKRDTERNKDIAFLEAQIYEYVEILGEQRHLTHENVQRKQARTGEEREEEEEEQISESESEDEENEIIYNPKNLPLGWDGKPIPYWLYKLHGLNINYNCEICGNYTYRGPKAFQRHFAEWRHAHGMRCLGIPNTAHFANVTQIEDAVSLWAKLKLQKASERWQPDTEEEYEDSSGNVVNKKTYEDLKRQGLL
UniProt Q96ES7: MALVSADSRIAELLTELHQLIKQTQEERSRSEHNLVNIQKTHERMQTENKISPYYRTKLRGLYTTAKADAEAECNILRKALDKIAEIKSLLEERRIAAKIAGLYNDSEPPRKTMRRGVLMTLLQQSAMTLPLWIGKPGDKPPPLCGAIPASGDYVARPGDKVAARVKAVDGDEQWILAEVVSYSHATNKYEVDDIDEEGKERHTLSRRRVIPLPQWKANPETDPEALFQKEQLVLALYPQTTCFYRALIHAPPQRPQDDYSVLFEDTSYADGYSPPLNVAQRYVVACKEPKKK
UniProt Q15428: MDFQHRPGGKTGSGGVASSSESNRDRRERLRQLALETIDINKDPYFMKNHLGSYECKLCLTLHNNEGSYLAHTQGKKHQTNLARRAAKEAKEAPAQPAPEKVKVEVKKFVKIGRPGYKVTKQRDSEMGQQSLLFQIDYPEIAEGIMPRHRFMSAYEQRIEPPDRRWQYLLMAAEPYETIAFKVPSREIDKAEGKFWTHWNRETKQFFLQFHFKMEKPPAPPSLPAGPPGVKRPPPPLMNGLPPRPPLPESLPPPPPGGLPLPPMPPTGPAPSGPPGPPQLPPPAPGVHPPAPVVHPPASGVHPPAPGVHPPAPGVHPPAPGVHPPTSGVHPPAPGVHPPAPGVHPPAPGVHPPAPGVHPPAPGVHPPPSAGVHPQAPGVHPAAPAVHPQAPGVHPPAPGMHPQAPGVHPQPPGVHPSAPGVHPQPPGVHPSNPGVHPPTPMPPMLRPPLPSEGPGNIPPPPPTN
UniProt Q9UJC5: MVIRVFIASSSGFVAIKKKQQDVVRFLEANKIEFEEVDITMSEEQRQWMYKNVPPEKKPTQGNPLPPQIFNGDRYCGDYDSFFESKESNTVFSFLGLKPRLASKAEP
UniProt O75533, whole entry, looked up: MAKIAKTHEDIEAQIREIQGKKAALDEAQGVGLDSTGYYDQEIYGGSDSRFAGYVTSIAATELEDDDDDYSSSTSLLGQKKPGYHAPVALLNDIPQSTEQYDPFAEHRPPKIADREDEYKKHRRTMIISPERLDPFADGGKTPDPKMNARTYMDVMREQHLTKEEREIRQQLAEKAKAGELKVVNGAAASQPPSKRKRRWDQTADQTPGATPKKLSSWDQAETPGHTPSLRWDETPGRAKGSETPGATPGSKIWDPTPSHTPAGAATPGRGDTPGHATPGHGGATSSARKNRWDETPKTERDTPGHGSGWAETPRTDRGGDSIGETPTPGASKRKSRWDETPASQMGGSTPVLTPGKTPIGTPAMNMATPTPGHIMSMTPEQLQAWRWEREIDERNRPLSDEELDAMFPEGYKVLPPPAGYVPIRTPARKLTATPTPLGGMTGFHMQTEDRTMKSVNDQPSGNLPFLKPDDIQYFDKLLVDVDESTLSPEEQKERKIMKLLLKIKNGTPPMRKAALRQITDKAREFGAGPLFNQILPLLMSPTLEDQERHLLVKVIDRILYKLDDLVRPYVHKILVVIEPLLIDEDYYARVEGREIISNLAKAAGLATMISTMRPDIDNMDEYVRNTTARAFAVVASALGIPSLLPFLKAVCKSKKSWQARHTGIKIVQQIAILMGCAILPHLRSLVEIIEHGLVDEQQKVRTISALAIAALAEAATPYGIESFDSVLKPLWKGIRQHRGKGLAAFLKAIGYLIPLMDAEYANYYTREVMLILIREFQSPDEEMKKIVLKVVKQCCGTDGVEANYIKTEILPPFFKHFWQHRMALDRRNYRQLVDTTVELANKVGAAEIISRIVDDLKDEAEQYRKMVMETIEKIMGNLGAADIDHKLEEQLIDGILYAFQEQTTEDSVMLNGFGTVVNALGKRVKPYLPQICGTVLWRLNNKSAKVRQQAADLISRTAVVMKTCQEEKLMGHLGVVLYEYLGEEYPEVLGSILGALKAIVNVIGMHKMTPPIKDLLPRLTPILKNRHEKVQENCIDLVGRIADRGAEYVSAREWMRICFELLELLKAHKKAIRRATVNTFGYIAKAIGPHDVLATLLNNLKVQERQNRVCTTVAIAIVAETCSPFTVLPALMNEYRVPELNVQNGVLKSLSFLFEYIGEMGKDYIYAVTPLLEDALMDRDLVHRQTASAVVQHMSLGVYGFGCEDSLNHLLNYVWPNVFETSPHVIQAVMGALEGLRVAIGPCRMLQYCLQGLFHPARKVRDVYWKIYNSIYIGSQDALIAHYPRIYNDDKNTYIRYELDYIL
UniProt P08697: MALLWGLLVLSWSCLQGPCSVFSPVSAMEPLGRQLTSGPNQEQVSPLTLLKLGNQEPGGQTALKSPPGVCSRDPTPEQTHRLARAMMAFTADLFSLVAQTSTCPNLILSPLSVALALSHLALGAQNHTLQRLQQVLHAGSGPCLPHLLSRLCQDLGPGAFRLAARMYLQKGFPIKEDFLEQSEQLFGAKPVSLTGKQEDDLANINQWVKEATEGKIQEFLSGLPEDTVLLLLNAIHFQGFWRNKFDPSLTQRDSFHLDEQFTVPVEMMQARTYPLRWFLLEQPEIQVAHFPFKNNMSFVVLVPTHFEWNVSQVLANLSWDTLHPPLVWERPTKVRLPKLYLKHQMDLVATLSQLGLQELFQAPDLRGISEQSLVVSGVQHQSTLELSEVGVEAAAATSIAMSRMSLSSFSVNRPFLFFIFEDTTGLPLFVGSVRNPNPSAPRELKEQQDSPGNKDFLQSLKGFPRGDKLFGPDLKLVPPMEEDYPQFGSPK
UniProt P50454: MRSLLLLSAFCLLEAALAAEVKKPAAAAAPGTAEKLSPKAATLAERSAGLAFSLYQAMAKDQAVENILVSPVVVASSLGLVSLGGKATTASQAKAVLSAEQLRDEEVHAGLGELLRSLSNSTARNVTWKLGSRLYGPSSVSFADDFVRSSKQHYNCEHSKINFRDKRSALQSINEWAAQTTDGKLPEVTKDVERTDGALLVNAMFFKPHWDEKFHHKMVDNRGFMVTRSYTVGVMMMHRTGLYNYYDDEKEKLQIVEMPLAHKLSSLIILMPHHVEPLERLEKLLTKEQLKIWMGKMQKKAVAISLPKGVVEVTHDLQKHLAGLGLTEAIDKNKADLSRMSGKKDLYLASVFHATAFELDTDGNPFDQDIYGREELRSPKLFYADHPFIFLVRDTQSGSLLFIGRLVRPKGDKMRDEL
UniProt Q9UGP8: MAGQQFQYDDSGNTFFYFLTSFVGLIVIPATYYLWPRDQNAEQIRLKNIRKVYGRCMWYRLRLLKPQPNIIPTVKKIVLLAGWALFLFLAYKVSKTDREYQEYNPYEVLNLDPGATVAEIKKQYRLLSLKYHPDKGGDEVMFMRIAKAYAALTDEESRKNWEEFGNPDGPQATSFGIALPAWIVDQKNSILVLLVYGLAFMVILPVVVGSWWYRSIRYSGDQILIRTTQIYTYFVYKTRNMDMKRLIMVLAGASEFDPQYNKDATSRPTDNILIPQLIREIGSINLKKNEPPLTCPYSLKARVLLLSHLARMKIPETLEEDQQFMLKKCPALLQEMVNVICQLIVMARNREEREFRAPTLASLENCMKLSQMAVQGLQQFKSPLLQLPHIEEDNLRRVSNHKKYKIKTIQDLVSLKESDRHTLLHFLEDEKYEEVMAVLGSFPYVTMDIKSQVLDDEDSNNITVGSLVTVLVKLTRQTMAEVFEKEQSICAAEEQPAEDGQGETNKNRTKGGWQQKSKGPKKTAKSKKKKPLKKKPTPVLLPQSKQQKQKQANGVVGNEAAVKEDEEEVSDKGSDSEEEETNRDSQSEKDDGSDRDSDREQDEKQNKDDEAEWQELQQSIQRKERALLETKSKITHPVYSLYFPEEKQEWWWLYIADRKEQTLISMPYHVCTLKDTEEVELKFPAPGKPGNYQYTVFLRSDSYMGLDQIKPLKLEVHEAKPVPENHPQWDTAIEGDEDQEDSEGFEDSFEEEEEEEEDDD
UniProt Q9NVA2: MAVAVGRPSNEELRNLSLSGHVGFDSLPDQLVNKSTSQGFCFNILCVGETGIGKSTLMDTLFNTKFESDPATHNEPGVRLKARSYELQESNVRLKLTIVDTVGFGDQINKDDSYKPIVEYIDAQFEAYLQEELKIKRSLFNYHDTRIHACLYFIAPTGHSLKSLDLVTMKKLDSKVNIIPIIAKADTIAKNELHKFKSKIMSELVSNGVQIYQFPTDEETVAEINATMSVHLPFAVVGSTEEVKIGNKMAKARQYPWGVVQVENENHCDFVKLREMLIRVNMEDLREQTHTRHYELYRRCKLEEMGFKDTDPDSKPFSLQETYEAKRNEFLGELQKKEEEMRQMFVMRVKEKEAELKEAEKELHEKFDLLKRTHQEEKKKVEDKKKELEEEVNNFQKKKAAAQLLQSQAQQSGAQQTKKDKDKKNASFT
UniProt Q15019: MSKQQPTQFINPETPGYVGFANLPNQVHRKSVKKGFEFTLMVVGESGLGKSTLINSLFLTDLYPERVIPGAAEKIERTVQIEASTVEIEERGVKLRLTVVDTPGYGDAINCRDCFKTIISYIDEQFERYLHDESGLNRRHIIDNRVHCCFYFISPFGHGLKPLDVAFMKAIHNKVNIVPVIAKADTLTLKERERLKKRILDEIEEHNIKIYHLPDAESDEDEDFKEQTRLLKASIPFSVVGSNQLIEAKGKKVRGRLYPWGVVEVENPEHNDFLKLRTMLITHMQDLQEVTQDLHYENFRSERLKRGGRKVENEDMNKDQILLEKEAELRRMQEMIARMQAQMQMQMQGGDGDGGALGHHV
UniProt P34896: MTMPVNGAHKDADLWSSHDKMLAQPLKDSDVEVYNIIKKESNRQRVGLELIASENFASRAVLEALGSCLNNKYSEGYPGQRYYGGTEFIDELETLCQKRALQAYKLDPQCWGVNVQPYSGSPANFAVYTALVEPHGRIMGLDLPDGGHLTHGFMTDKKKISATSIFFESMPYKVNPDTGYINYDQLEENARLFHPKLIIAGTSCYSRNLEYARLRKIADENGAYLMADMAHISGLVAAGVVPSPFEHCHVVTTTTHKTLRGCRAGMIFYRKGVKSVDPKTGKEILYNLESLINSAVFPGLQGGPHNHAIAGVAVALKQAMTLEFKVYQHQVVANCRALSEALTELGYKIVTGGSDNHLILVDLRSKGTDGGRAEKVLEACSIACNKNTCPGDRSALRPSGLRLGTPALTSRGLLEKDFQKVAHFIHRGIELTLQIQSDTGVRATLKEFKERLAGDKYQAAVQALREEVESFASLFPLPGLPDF

Assays:
Test in all cases: log2 fold change, soluble protein after heating vs DMSO (PISA); higher = thermal stabilisation; K562 cells, 10 uM, 30 min; active = over 0.2 and 3.5 SD of the protein, either way, in both replicates (recomputed)
IRAK-1-4 Inhibitor I = compound: C1COCCN1CCN2C3=CC=CC=C3N=C2NC(=O)C4=CC(=CC=C4)[N+](=O)[O-] [IRAK-1-4 Inhibitor I]
In short: (§1)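 K562 cells at 2×10^6 cells/mL were exposed to 10 μM compound for 30 min, then aliquots were heated for 3 min across 48°C-58°C, pooled, and extracted in PBS containing 0.5% NP-40 at 4°C. The supernatant after 21,000xg for 90 min was taken as soluble protein and measured by TMTpro 16plex LC-MS/MS with channel sums equalised. Thermal stability is reported relative to control samples, with values from duplicates. Fold changes are given on a log2 scale.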

ibrutinib = compound: C=CC(=O)N1CCC[C@@H](n2nc(-c3ccc(Oc4ccccc4)cc3)c3c(N)ncnc32)C1 [ibrutinib]
In short: as §1

[1] = compound: CC(=O)c1cnc2ccc(-c3cc(Cl)c(O)c(Cl)c3)nc2c1N[C@H]1CC[C@H](CN(C)C)CC1
In short: as §1

ralimetinib = compound: CC(C)(C)Cn1c(N)nc2ccc(-c3[nH]c(C(C)(C)C)nc3-c3ccc(F)cc3)nc21 [ralimetinib]
In short: as §1

[2] = compound: CC(C)(O)CC(=O)NCCn1ccc2ncnc(Nc3ccc(Oc4cccc(C(F)(F)F)c4)c(Cl)c3)c21
In short: as §1

[3] = compound: CC(C)C1=C2N=C(C=C(N2N=C1)NCC3=CC=CC=C3)NCCCCCCN
In short: as §1

[4] = compound: CC(C)C[C@@H](C=O)NC(=O)[C@H](CC(C)C)NC(=O)[C@H](CC(C)C)NC(=O)OCc1ccccc1
In short: as §1

pinometostat = compound: CC(C)N(C[C@H]1O[C@@H](n2cnc3c(N)ncnc32)[C@H](O)[C@@H]1O)[C@H]1C[C@@H](CCc2nc3cc(C(C)(C)C)ccc3[nH]2)C1 [pinometostat]
In short: as §1

[5] = compound: CC1=C(C(CC(=O)N1)C2=CC=C(C=C2)C(F)(F)F)C(=O)NC3=C(C=C4C(=C3)C=NN4)F
In short: as §1

[6] = compound: CC1=C(C2=C(C=C1)C(=O)C3=CC=CC=C3N2CCCN)C
In short: as §1

Measured: log2 fold change

SERPINB6, A0A087X1N8
inactive: IRAK-1-4 Inhibitor I 0.05 | ibrutinib 0.044 | [1] 0.019 | ralimetinib 0.002 | [2] 0.017 | [3] 0.04 | [4] -0.028 | pinometostat -0.033 | [5] 0.027 | [6] -0.053

SEC62 (UniProt Q99442)
inactive: IRAK-1-4 Inhibitor I 0.046 | ibrutinib 0.081 | [1] 0.041 | ralimetinib -0.046 | [2] 0.048 | [3] 0.083 | [4] 0.021 | pinometostat -0.058 | [5] 0.107 | [6] 0.064

SFSWAP isoform 2 (UniProt Q12872)
inactive: IRAK-1-4 Inhibitor I 0.024 | ibrutinib 0.108 | [1] -0.228 | ralimetinib 0.014 | [2] -0.004 | [3] -0.037 | [4] 0.09 | pinometostat 0.006 | [5] 0.1 | [6] 0.049

SIRT5 (UniProt Q9NXA8)
inactive: IRAK-1-4 Inhibitor I 0.048 | ibrutinib 0.081 | [1] -0.009 | ralimetinib -0.009 | [2] -0.025 | [3] 0.053 | [4] 0.003 | pinometostat -0.052 | [5] -0.001 | [6] 0.024

SERBP1 (UniProt Q8NC51)
inactive: IRAK-1-4 Inhibitor I -0.039 | ibrutinib 0.019 | [1] 0.038 | ralimetinib 0.224 | [2] 0.075 | [3] 0.085 | [4] 0.23 | pinometostat 0.122 | [5] 0.054 | [6] 0.233

SHOC2 (UniProt Q9UQ13)
inactive: IRAK-1-4 Inhibitor I 0.016 | ibrutinib 0.022 | [1] -0.046 | ralimetinib -0.015 | [2] -0.024 | [3] -0.005 | [4] 0.016 | pinometostat 0.066 | [5] -0.036 | [6] 0.092

SF3A3 (UniProt Q12874)
inactive: IRAK-1-4 Inhibitor I -0.079 | ibrutinib -0.1 | [1] 0.007 | ralimetinib 0.018 | [2] -0.013 | [3] 0.067 | [4] 0.081 | pinometostat 0.003 | [5] -0.066 | [6] -0.006

SGF29 (UniProt Q96ES7)
inactive: IRAK-1-4 Inhibitor I 0.016 | ibrutinib 0.071 | [1] -0.064 | ralimetinib -0.013 | [2] -0.017 | [3] 0.121 | [4] 0.059 | pinometostat 0.033 | [5] -0.028 | [6] 0.067

SHTN1 isoform 3 (UniProt A0MZ66)
inactive: IRAK-1-4 Inhibitor I -0.069 | ibrutinib -0.042 | [1] 0.041 | ralimetinib 0.111 | [2] -0.032 | [3] -0.063 | [4] 0.034 | pinometostat 0.034 | [5] -0.015 | [6] -0.021

SF3A2 (UniProt Q15428)
inactive: IRAK-1-4 Inhibitor I -0.067 | ibrutinib -0.055 | [1] -0.014 | ralimetinib 0.005 | [2] 0.038 | [3] 0.044 | [4] -0.065 | pinometostat -0.027 | [5] -0.024 | [6] 0.031

SEC61A1 (UniProt P61619)
inactive: IRAK-1-4 Inhibitor I 0.063 | ibrutinib 0.072 | [1] 0.031 | ralimetinib -0.077 | [2] 0.02 | [3] 0.047 | [4] -0.025 | pinometostat -0.017 | [5] 0.036 | [6] 0.024

SH3BGRL2 (UniProt Q9UJC5)
inactive: IRAK-1-4 Inhibitor I 0.049 | ibrutinib 0.075 | [1] -0.008 | ralimetinib -0.071 | [2] -0.021 | [3] 0.012 | [4] 0.079 | pinometostat -0.007 | [5] -0.058 | [6] 0.002

SLAIN2 (UniProt Q9P270)
inactive: IRAK-1-4 Inhibitor I -0.052 | ibrutinib 0.003 | [1] -0.128 | ralimetinib 0.029 | [2] 0.006 | [3] 0.017 | [4] 0.065 | pinometostat -0.012 | [5] 0.069 | [6] -0.006

SF3B1 (UniProt O75533)
inactive: IRAK-1-4 Inhibitor I -0.036 | ibrutinib -0.004 | [1] -0.062 | ralimetinib 0.023 | [2] -0.045 | [3] -0.185 | [4] 0.028 | pinometostat 0.052 | [5] -0.01 | [6] -0.074

SERPINF2 (UniProt P08697)
inactive: IRAK-1-4 Inhibitor I 0.082 | ibrutinib 0.208 | [1] 0.077 | ralimetinib -0.021 | [2] 0.118 | [3] 0.1 | [4] 0.155 | pinometostat -0.107 | [5] 0.062 | [6] -0.129

SERPINH1 (UniProt P50454)
inactive: IRAK-1-4 Inhibitor I 0.016 | ibrutinib -0.018 | [1] 0.013 | ralimetinib 0.037 | [2] -0.006 | [3] -0.002 | [4] -0.04 | pinometostat -0.011 | [5] -0.009 | [6] 0.02

SF3B2 (UniProt Q13435)
inactive: IRAK-1-4 Inhibitor I -0.101 | ibrutinib -0.032 | [1] -0.035 | ralimetinib 0.062 | [2] 0.024 | [3] -0.039 | [4] 0.054 | pinometostat 0.075 | [5] 0.037 | [6] -0.066

SEC63 (UniProt Q9UGP8)
inactive: IRAK-1-4 Inhibitor I 0.001 | ibrutinib -0.029 | [1] 0.003 | ralimetinib -0.036 | [2] -0.008 | [3] 0.085 | [4] -0.023 | pinometostat -0.038 | [5] 0 | [6] 0.02

SH3BP5 (UniProt O60239)
inactive: IRAK-1-4 Inhibitor I -0.043 | ibrutinib -0.017 | [1] -0.046 | ralimetinib -0.039 | [2] -0.032 | [3] -0.086 | [4] 0.068 | pinometostat -0.013 | [5] -0.017 | [6] -0.083

SEPHS1 (UniProt P49903)
inactive: IRAK-1-4 Inhibitor I 0.021 | ibrutinib 0.005 | [1] -0.032 | ralimetinib -0.009 | [2] -0.041 | [3] 0.038 | [4] -0.008 | pinometostat -0.028 | [5] 0.022 | [6] 0.026

SEPTIN11 isoform 2 (UniProt Q9NVA2)
inactive: IRAK-1-4 Inhibitor I 0.043 | ibrutinib 0.018 | [1] -0.008 | ralimetinib -0.046 | [2] 0.01 | [3] 0.088 | [4] 0.006 | pinometostat -0.044 | [5] 0.015 | [6] -0.005

Fetched one by one from the entries so far, two records:
SEPTIN11 isoform 2 (UniProt Q9NVA2)
inactive: IRAK-1-4 Inhibitor I 0.043 | ibrutinib 0.018 | [1] -0.008 | ralimetinib -0.046 | [2] 0.01 | [3] 0.088 | [4] 0.006 | pinometostat -0.044 | [5] 0.015 | [6] -0.005

SEPHS1 (UniProt P49903)
inactive: IRAK-1-4 Inhibitor I 0.021 | ibrutinib 0.005 | [1] -0.032 | ralimetinib -0.009 | [2] -0.041 | [3] 0.038 | [4] -0.008 | pinometostat -0.028 | [5] 0.022 | [6] 0.026

Following part

SF1 isoform 5 (UniProt Q15637)
inactive: IRAK-1-4 Inhibitor I 0.039 | ibrutinib 0.023 | [1] 0.028 | ralimetinib -0.034 | [2] 0.007 | [3] 0.019 | [4] 0.01 | pinometostat -0.031 | [5] 0.01 | [6] 0.016

SET isoform 2 (UniProt Q01105)
inactive: IRAK-1-4 Inhibitor I 0.064 | ibrutinib 0.003 | [1] -0.013 | ralimetinib -0.054 | [2] 0.038 | [3] 0.07 | [4] 0.012 | pinometostat -0.057 | [5] 0.008 | [6] -0.018

SEPTIN2 isoform 2 (UniProt Q15019)
inactive: IRAK-1-4 Inhibitor I 0.024 | ibrutinib -0.004 | [1] 0.012 | ralimetinib -0.018 | [2] 0.009 | [3] 0.054 | [4] 0.008 | pinometostat -0.033 | [5] 0.016 | [6] 0.004

SGMS1 (UniProt Q86VZ5)
inactive: IRAK-1-4 Inhibitor I 0.017 | ibrutinib 0.026 | [1] 0.018 | ralimetinib 0 | [2] -0.004 | [3] -0.064 | [4] -0.03 | pinometostat -0.035 | [5] -0.016 | [6] -0.017

SHC1 isoform 6 (UniProt P29353)
inactive: IRAK-1-4 Inhibitor I 0.015 | ibrutinib 0.012 | [1] 0.005 | ralimetinib -0.044 | [2] 0.007 | [3] 0.042 | [4] 0.03 | pinometostat -0.013 | [5] -0.006 | [6] -0.035

SH3BP1 (UniProt Q9Y3L3)
inactive: IRAK-1-4 Inhibitor I 0.027 | ibrutinib 0.021 | [1] -0.071 | ralimetinib 0.004 | [2] -0.019 | [3] -0.025 | [4] 0.019 | pinometostat -0.016 | [5] -0.02 | [6] 0.029

SELENOF (UniProt O60613)
inactive: IRAK-1-4 Inhibitor I 0.012 | ibrutinib -0.075 | [1] 0.016 | ralimetinib 0.023 | [2] 0.012 | [3] -0.026 | [4] 0.008 | pinometostat 0.006 | [5] -0.017 | [6] 0.134

SHMT1 (UniProt P34896)
inactive: IRAK-1-4 Inhibitor I 0.042 | ibrutinib 0.028 | [1] 0.015 | ralimetinib -0.01 | [2] -0.054 | [3] 0.063 | [4] 0.014 | pinometostat 0.001 | [5] 0.059 | [6] 0.036

SEL1L (UniProt Q9UBV2)
inactive: IRAK-1-4 Inhibitor I -0.032 | ibrutinib -0.111 | [1] 0 | ralimetinib 0.006 | [2] -0.025 | [3] -0.074 | [4] 0.019 | pinometostat -0.012 | [5] -0.006 | [6] -0.035
